## Library screen at single concentrations

Protein sequences, listed by entry. Tags and fused reporters are not part of them. Residues count along the entry.
UniProt Q4DA54, 1-478: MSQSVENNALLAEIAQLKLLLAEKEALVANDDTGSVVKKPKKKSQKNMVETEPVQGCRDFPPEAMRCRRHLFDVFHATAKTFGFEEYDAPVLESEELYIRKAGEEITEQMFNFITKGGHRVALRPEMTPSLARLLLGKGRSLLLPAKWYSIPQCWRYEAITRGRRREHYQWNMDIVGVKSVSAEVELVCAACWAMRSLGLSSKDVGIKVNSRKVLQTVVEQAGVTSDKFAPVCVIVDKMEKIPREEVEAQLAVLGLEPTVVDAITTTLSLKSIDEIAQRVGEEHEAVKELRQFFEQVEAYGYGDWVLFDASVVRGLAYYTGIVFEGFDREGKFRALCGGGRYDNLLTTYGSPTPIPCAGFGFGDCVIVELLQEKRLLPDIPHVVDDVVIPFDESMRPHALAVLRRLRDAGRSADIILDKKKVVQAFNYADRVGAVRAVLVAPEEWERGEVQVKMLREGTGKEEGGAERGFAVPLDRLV
UniProt Q8IDJ8, 1-583: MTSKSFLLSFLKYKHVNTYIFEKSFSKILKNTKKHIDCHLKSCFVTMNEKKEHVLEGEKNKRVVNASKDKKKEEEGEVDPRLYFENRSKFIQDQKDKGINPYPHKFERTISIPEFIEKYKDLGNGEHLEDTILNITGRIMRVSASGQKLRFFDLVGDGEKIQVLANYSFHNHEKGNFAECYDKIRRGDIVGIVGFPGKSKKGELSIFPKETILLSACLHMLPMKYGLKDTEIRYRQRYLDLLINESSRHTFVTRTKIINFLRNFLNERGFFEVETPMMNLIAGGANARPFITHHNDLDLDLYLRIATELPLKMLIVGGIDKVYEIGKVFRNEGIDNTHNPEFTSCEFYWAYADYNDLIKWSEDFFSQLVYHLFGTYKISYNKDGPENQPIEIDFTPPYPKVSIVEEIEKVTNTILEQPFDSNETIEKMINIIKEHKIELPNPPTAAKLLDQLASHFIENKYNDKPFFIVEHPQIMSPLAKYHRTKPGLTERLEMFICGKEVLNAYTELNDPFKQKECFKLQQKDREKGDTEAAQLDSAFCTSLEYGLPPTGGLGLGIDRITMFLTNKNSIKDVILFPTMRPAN

TcHisRS: 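Enzyme assay of histidyl-tRNA synthetase; the read-out is not stated. Target: Histidine-tRNA ligase, Trypanosoma cruzi CL Brener (UniProt Q4DA54). Compounds at 30 µM. Direction is inferred from retests: higher values go with stronger inhibition. Size under these conditions: about 69,000 compounds, about 31 of them at 50% or above in at least one test.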
PfKRS1: 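Enzyme assay of the cytosolic lysyl-tRNA synthetase in 384-well plates, read by luminescence. Target: Lysine-tRNA ligase, Plasmodium falciparum 3D7 (UniProt Q8IDJ8). Concentration: 30 µM. Higher reads as stronger inhibition, judged from the few compounds that gave an IC50. Of about 69,000 compounds tested this way, about 49 (0.071%) reached 50% or more in at least one test.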

The filed quantity is “Percent Effect” (%).
The controls that fix the scale are not given in the record; negative values are as filed.
This is an unselected part of the compounds tested.

Compound | TcHisRS | PfKRS1
CNC(=O)[C@@H]1COC[C@H]2CN(C(=O)c3ccc(C)c(F)c3)C[C@H]21 | 1.075 | 2.325
Cn1nccc1CCC(=O)N1CCCC(Cc2cccnc2)C1 (centres undefined) | 9.89 | 3.189
Cc1cc(NC(C)C(=O)NCc2ccccc2)nc(-c2ccncc2)n1 (centres undefined) | 11.76 | -0.6192
CCc1noc(CN2CCCN(C(C)=O)CC2)n1 | 6.286 | 0.7893
Cn1cnc(S(=O)(=O)Nc2cc(C(N)=O)ccc2Cl)c1 | 1.02 | 7.521
CCNC(=O)N1CCC(NC(=O)NCCc2cc(F)cc(F)c2)C1 (centres undefined) | 5.202 | -0.3402
COCCN1C(=O)CC(N2CCN(c3ccc(F)cc3)CC2)C1=O (centres undefined) | 2.174 | 1.753
CC(C)(C)SCCN1CC(=O)N2CC[C@@H](O)C[C@H]2C1=O | 11.06 | -1.864
COc1ccccc1OCc1cc(C(=O)N2CCN[C@H](C)C2)n[nH]1 | 0.8333 | -2.22
COC1CCC(N(C)c2ccnc(N(C)C)n2)CC1 (centres undefined) | -1.734 | 0.7334
NC(=O)c1ccc(OCCCN2C[C@H](C3CC3)[C@@H](N)C2)cc1 | 5.759 | 2.707
O=C1CC(N(C(=O)c2ccc(-n3cccc3)cc2)C2CC2)C(=O)N1 (centres undefined) | 1.478 | 9.567
Cc1nc(O)c2nnn(C[C@H]3CCCN3C(=O)C(C)(C)C)c2n1 | 0 | 6.66
CC(=O)N1[C@H](Cn2cncn2)C[C@@H]2CN(c3ncc(F)cn3)CC[C@@H]21 | 5.473 | 3.881
O=C(NCC1CC1)c1nnc2ccc(Cl)cc2n1 | 10.31 | 4.184
CCOc1ccccc1NC(=O)Nc1cc(N2CCCC2)ncn1 | 1.031 | 9.631
CCn1nc(C(C)C)cc1C(=O)NCC1CCCN(c2ccccn2)C1 (centres undefined) | 7.035 | 2.596
CCN(CC1CCOC1)C(=O)Cn1nnn(-c2cccs2)c1=O (centres undefined) | 9.036 | 0.3252
COc1cccc(-c2n[nH]c3c2CN(C(=O)c2oc(C)cc2C)CC3)c1 | -1.064 | -1.703
CNc1nc(C(=O)N2CCC3(CCCN(CC4CC4)C3=O)C2)cs1 (centres undefined) | 1.961 | -0.9089
Cc1cnc(N2C[C@H]3CCN(CC4CC4)C[C@H]3C2)nc1 | 6.897 | 1.931
O=C(C1CCCC1)N1CC(c2nc(Cc3ccccc3)no2)C1 | 6.122 | 4.545
CSc1ccccc1-n1ccnc1-c1cn(C2CCNCC2)nn1 | 8.772 | -0.8145
CC(C)c1ccc(-n2ncc(C(=O)N(C)C3CCN(C)CC3)c2N)cc1 | 4.545 | 4.142
c1cnc(-c2nc(CNC3CCc4ncnn4C3)cs2)nc1 (centres undefined) | 8.504 | 1.493
CCCn1nnnc1COc1cc(OC)ccc1C(=O)OC | 8.173 | 2.429
O=C(Cc1ccccc1F)NCC1CCN(CCN2CCOCC2)C1 (centres undefined) | 0.5618 | 4.167
COc1cc(F)c(-n2cnc(CCNC(C)=O)c2)cc1F | 12.64 | 9.04
Cc1cccc(C(=O)N2CCn3cc(CN4CCCCC4)nc3C2)n1 | 3.922 | 2.53
O=C(c1sccc1Cl)N1CCC(Cn2cc(CO)nn2)CC1 | 3.96 | 4.78
O=C(c1ncccn1)N1C[C@@H]2COC[C@]2(c2nnc(C3CC3)o2)C1 | 6.931 | 7.364
O=C(OCc1cccc(F)c1)c1cccc(C(=O)N2CCCC2)n1 | 7.143 | -0.2035
COc1ccc(F)cc1S(=O)(=O)N1CCN(CCn2ccnc2)CC1 | 9 | 0.3154
Cc1nc(-c2ccc(F)cc2)nc2c1CCN(C(=O)CN(C)C)CC2 | -6.452 | -0.02133
FC(F)Oc1ccc(CN2CCOC3(CCOCC3)C2)cc1Cl | 1.622 | -1.779
Cc1cccc(OC2CCN(C(=O)NCc3cc[nH]n3)CC2)c1C | 11.23 | 0.4861
CCC[C@H]1CN(Cc2nccn2C)C[C@@H]1NC(=O)C1(COC)CCC1 | -7.792 | -0.4941
Cc1cc(N2CCC(N3CCOCC3)C2)n2nc(C)c(C)c2n1 (centres undefined) | 3.061 | 4.825
Cc1ccc(N2CCCN(C(=O)c3cccc4c3ccn4C)CC2)nn1 | 4.082 | 1.784
Cc1nn(C)c(N(C)C)c1CNCc1cccc(Cn2ccnc2)c1 | 11.05 | -0.429
CC(C)c1nc(C2CCCN(C(=O)Cc3cccnc3)C2)no1 (centres undefined) | 1.504 | 6.309
CCOc1cncc(N2CCN(c3ccccc3F)CC2)n1 | 6.667 | 7.391
COc1ncc(NCc2ccc(Cl)c(Cl)c2)cc1C(N)=O | 2.762 | 3.981
O=C(c1ccc(NC2CC2)nc1)N1CCC(Nc2cccnn2)CC1 | 4.956 | 0.2574
CCS(=O)(=O)c1ccc(N2CCC(N)CC2)cc1 | 5.102 | 1.955
Cc1nc(C(C)C)sc1C(C)N(C)C(=O)c1ccc(=O)n(C)n1 (centres undefined) | 8.287 | 7.179
NS(=O)(=O)Cc1ccc(CNc2cncc(-n3cccn3)n2)cc1 | 2.857 | 1.01
CC1=CC[C@@H]2CN(C(=O)c3ccc(-c4cc[nH]n4)cc3)C[C@@H]2C1 | 2.4 | -3.492
CC(C)(C)c1cc(NC(=O)CN2CCCC(Cn3cncn3)C2)on1 (centres undefined) | 1.299 | -5.989
CCOC(=O)c1n[nH]cc1CN1CCOC(Cc2ccc(F)cc2)C1 (centres undefined) | 0 | -0.3465
Cc1noc(C)c1CNCc1c(C(C)C)nn(C)c1N1CCOCC1 | 1.22 | 9.543
COc1coc(C(=O)Nc2ccncc2)cc1=O | 8.911 | 3.661
CCn1nc(NC(=O)Cn2ccc(C(C)=O)n2)c2ccccc21 | 2.062 | -6.837
CS(=O)(=O)c1cccc(S(=O)(=O)NC(=O)CC2CCCCC2)c1 | 4.459 | 4.85
Cc1nc2ccccc2nc1NCc1nnc2n1CCC2 | 1.087 | 2.039
CSCc1noc(C2CCC(=O)N(CCc3ccccc3)C2)n1 (centres undefined) | 1.117 | 5.094
Cc1cc2cc(C(=O)N[C@@H]3CC[C@@H](N4CCNC(=O)C4)[C@@H]3O)ccc2o1 | 4.396 | 4.303
Cc1ccc(C(F)(F)F)cc1C(=O)N[C@H]1CN(CCO)C[C@@H]1C1CC1 | 4.712 | 5.772
Cc1nn(CC(F)F)c2c1c(C(F)F)cc(=O)n2CC(=O)O | 3.478 | -0.5066
C=C(C)CN1CCC(C(=O)c2cc(F)ccc2F)CC1 | 6.433 | -0.3164
O=C(O)c1cn(CC2CCCN(c3cnc4ccccc4n3)C2)nn1 (centres undefined) | 21.91 | 5.725
COc1cccc(C(=O)N2CCN(C(=O)CCCn3ccnc3)CC2)c1 | 3.896 | -1.675
O=C(NC[C@H]1OC[C@@H](NCc2ccccc2)[C@@H]1O)Nc1ccc(F)cc1 | 3.261 | 7.692
NC(=O)CSCC(=O)N1CCc2cc(Cl)cc(Cl)c2C1 | 0.8368 | 5.384
COCC1CN(CCOc2ccc(Cl)cc2)Cc2c1cnn2C (centres undefined) | 6.533 | 2.189
CCOC(=O)CC1CCCCN1C(=O)CCc1cc(Cl)no1 (centres undefined) | 6.186 | 5.288
Cc1nc(CN2CCOCC3(CCN(c4cccnc4)CC3)C2)cs1 | 6.952 | 7.816
O=C1CO[C@H]2CN(Cc3ccc4c(c3)OCO4)C[C@H]2N1 | 3.261 | 6.658

Data taken from ChEMBL document CHEMBL3988442, “University of Dundee, Small-Polar-MMV Screening Library” (2021).